Values joined by “and” are separate entries in the source; they are usually repeats but may differ in a detail not shown here. Equal entries are not always repeated. Shown are results outside the selection of hits, which stands elsewhere. Records with an inconclusive call do not appear. Active and inactive are the calls of the source. Calls follow the shape of the full dose curve; tested in HEK293 cells.
Assay: qHTS for Inhibitors of binding or entry into cells for Lassa Virus
Conditions: Lassa virus pseudotyped entry inhibition, cell-based qHTS; at 49.2 µM (top of the series)
% is scaled to controls: 0 for no effect and ±100 for the full control effect.

SMILES	activity change, negative = inhibition
O=C(CCCCCCC(=O)Nc1ccccc1)NO	inactive: -11.6% and inactive: -18.4%

Source: PubChem BioAssay AID720533 (National Center for Advancing Translational Sciences (NCATS), 2013)
